# According to article PMC5640428:
# Results are given in words; binding and its absence hold for the method and conditions named. In cells and extracts the contact can be indirect. A yes stands for co-enrichment or nearness to the bait. Other partners may have been found.
# T1: native KCC2 (K+-Cl- cotransporter KCC2) (mouse (endogenous in brain)) (UniProt Q91V14)
# T1 sequence: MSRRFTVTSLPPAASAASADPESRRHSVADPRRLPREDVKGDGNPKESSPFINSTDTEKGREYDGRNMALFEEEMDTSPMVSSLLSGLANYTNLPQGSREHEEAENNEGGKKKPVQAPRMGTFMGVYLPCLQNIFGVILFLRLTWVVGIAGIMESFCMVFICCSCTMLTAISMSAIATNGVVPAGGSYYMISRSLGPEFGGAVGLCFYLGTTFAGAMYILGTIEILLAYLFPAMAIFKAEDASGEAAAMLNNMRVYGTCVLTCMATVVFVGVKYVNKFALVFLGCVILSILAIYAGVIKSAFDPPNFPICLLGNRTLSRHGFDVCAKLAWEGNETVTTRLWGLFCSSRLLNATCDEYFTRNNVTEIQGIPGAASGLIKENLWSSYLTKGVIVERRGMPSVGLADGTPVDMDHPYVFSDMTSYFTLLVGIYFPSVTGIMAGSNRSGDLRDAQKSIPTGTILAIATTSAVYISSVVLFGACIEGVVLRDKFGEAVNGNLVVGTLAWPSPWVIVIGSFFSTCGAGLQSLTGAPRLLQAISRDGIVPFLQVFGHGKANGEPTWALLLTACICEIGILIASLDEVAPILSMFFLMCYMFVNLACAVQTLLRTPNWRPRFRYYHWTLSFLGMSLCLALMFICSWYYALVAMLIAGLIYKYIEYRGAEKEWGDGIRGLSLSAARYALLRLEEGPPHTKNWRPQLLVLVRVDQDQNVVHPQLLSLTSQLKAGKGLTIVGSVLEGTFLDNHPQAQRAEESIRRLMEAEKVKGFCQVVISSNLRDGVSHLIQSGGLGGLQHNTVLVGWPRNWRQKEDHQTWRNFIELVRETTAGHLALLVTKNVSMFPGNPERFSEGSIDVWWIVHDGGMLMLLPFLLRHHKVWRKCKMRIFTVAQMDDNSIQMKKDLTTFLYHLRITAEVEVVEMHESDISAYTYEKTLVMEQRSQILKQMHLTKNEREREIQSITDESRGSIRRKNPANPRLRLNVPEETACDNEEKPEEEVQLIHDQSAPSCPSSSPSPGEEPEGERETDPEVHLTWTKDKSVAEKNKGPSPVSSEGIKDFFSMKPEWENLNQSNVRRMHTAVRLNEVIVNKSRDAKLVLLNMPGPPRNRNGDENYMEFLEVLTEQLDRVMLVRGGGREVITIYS
# Target: T1, native KCC2 (K+-Cl- cotransporter KCC2) (mouse (endogenous in brain))
# Experiment: affinity purification with mass spectrometry; anti-KCC2 antibodies (C-terminal, N-terminal KCC2b, pS940) cross-linked with DMP to GammaBind IgG beads; C12E9-solubilised whole-brain membrane fractions of P5 and P50 mice; 4 hr, 4°C; parallel IgG/IgY controls
row,binding,Binder
1,binds,"YWHAG (protein, UniProt P61982 1-247) MVDREQLVQKARLAEQAERYDDMAAAMKNVTELNEPLSNEERNLLSVAYKNVVGARRSSWRVISSIEQKTSADGNEKKIEMVRAYREKIEKELEAVCQDVLSLLDNYLIKNCSETQYESKVFYLKMKGDYYRYLAEVATGEKRATVVESSEKAYSEAHEISKEHMQPTHPIRLGLALNYSVFYYEIQNAPEQACHLAKTAFDDAIAELDTLNEDSYKDSTLIMQLLRDNLTLWTSDQQDDDGGEGNN"
2,binds,"SLC4A10 (protein, UniProt Q5DTL9 1-1118) MEIKDQGAQMEPLLPTRNDEEAVVDRGGTRSILKTHFEKEDLEGHRTLFIGVHVPLGGRKSHRRHRHRGHKHRKRDRERDSGLEDGRESPSFDTPSQRVQFILGTEDDDEEHLPHDLFTELDEICWREGEDAEWRETARWLKFEEDVEDGGERWSKPYVATLSLHSLFELRSCILNGTVLLDMHANTIEEIADMVLDQQVSSGQLNEDVRHRVHEALMKQHHHQNQKKLANRIPIVRSFADIGKKQSEPNSMDKNAGQVVSPQSAPACAENKNDVSRENSTVDFSKGLGGQQKGHTSPCGMKQRLDKGPPHQQEREVDLHFMKKIPPGAEASNILVGELEFLDRTVVAFVRLSPAVLLQGLAEVPIPSRFLFILLGPLGKGQQYHEIGRSIATLMTDEVFHDVAYKAKDRNDLVSGIDEFLDQVTVLPPGEWDPSIRIEPPKNVPSQEKRKIPAVPNGTAAHGEAEPHGGHSGPELQRTGRIFGGLILDIKRKAPFFWSDFRDAFSLQCLASFLFLYCACMSPVITFGGLLGEATEGRISAIESLFGASMTGIAYSLFGGQPLTILGSTGPVLVFEKILFKFCKEYGLSYLSLRASIGLWTATLCIILVATDASSLVCYITRFTEEAFASLICIIFIYEALEKLFELSETYPINMHNDLELLTQYSCNCMEPHSPSNDTLKEWRESNLSASDIIWGNLTVSECRSLHGEYVGRACGHGHPYVPDVLFWSVILFFSTVTMSATLKQFKTSRYFPTKVRSIVSDFAVFLTILCMVLIDYAIGIPSPKLQVPSVFKPTRDDRGWFVTPLGPNPWWTIIAAIIPALLCTILIFMDQQITAVIINRKEHKLKKGCGYHLDLLMVAVMLGVCSIMGLPWFVAATVLSITHVNSLKLESECSAPGEQPKFLGIREQRVTGLMIFILMGSSVFMTSILKFIPMPVLYGVFLYMGASSLKGIQLFDRIKLFWMPAKHQPDFIYLRHVPLRKVHLFTVIQMSCLGLLWIIKVSRAAIVFPMMVLALVFVRKLMDFLFTKRELSWLDDLMPESKKKKLEDAEKEEEQSMLAMEDEGTVQLPLEGHYRDDPSVINISDEMSKTAMWGNLLVTADNSKEKESRFPSKSSPS"

# Continued, binder first:
row,Binder,binding
1,"CPSF6 (protein, UniProt Q6NVF9 1-551) MADGVDHIDIYADVGEEFNQEAEYGGHDQIDLYDDVISPSANNGDAPEDRDYMDTLPPTVGDDVGKGAAPNVVYTYTGKRIALYIGNLTWWTTDEDLTEAVHSLGVNDILEIKFFENRANGQSKGFALVGVGSEASSKKLMDLLPKRELHGQSPVVTPCNKQFLSQFEMQSRKTTQSGQMSGEGKAGPPGGGSRAAFPQGGRGRGRFPGAVPGGDRFPGPAGPGGPPPPFPAGQTPPRPPLGPPGPPGPPGPPPPGQVLPPPLAGPPNRGDRPPPPVLFPGQPFGQPPLGPLPPGPPPPVPGYGPPPGPPPPQQGPPPPPGPFPPRPPGPLGPPLTLAPPPHLPGPPPGAPPPAPHVNPAFFPPPTNSGMPTSDSRGPPPTDPYGRPPPYDRGDYGPPGREMDTARTPLSEAEFEEIMNRNRAISSSAISRAVSDASAGDYGSAIETLVTAISLIKQSKVSADDRCKVLISSLQDCLHGIESKSYGSGSRRERSRERDHSRSREKSRRHKSRSRDRHDDYYRERSRERERHRDRDRDRDRERDREREYRHR",binds
2,"PITPNM2 (protein, UniProt Q6ZPQ6 1-1335) MIIKEYRIPLPMTVDEYRIAQLYMIQKKSRNETHGQGSGVEILENRPYTDGPGGSGQYTHKVYHVGMHIPGWFRSILPKAALRVVEESWNAYPYTRTRFTCPFVEKFSIDIETFYKTDTGENNNVFNLSPVEKSQLITDIIDIVKDPVPPSEYKTEEDPKLFQSVKTCRGPLSENWIQEYKKRLLPIMCAYKLCKVEFRYWGMQSKIERFIHDTGLRRVMVRAHRQAWCWQDEWYGLTMEKIRELEREVQLMLSRKMAQFSEEGPSELSKDSATKDQASGTTSDPGSKNGEPLGRGLKKQWSTSSKSSRSSKRGASPSRHSISEWRMQSIARDSDEGSEEEFFDAHENLYCTEEKQAKDMTKWNSNDLMDKMESPEPEESQDEIYQQSGSEFRVASSVEQLNIIEDEVSQPLAAPPSKIHVLLLVLHGGTILDTGAGDPSSKQGDTNTITNVFDTVMRVHYPSALGHLAIRLVPCPPICADAFALVSNLSPYGHDEGCLSSSQDHIPLAALPLLATSSPQYQEAVATVIQRANLAYGDFIKSQEGVTFNGQVCLIGDCVGGILAFDALCYSGQPVSESQSSSRRGSVVSMQDADLLSPGTLANAAHCSGGSGGGGSGGSSLESSRHLSRSNIDIPRSNGTEDSRRQLPRKRSDSSTYELDTIQQHQAFLSSLHASVLRNEPSSRRSSSSTMLDGAGALGKFDFEIADLFLFGCPLGLVLALRKTVIPSLDVFQLRPACQQVYNLFHPADPSASRLEPLLERRFHSLPPFSIPRYQRYPLGDGCSTLLADVLQTHNTVFQEHAAPSSPGTAPAGRGFRRASEISIASQVSGMAESYTASSIAQKGPSSLNHTPSIRRLSLLALPPPSPTTQGPRARARQVSPNLERAPCLPDLDIGEVAAKWWGQKRIDYALYCPDALTAFPTVALPHLFHASYWESTDVVSFLLRQVMRHDSSSILELDGKEVSVFTPSQPRERWQRKRTHVKLRNVAANHRINDAVANEDGPQVVTGRFMYGPLDMVTLTGEKVDVHIMTQPPSGEWLHLDTLVTNSSGRVSYTIPETHRLGVGVYPIKMVVRGDHTFADSYITVLPRGTEFVVFSIDGSFAASVSIMGSDPKVRAGAVDVVRHWQDLGYLIIYVTGRPDMQKQRVVAWLAQHNFPHGVVSFCDGLVHDPLRHKANFLKLLISELHLRAHAAYGSTKDVAVYNSISLSPMHIYIVGRPTKKLQQQCQFITDGYAAHLAQLKYNHRARPARNTATRMALRKGSFGLPGQSDFLRSRNHLLRTISAQPSGPSHRHDRTQTQMDSEQRGQRSMSVAASCWGRAMAGRLEPGAATGPK",binds
3,"ACO2 (protein, UniProt Q99KI0 28-780) QRAKVAMSHFEPSEYIRYDLLEKNINIVRKRLNRPLTLSEKIVYGHLDDPANQEIERGKTYLRLRPDRVAMQDATAQMAMLQFISSGLPKVAVPSTIHCDHLIEAQVGGEKDLRRAKDINQEVYNFLATAGAKYGVGFWRPGSGIIHQIILENYAYPGVLLIGTDSHTPNGGGLGGICIGVGGADAVDVMAGIPWELKCPKVIGVKLTGSLSGWTSPKDVILKVAGILTVKGGTGAIVEYHGPGVDSISCTGMATICNMGAEIGATTSVFPYNHRMKKYLSKTGRTDIANLAEEFKDHLVPDPGCQYDQVIEINLNELKPHINGPFTPDLAHPVADVGTVAEKEGWPLDIRVGLIGSCTNSSYEDMGRSAAVAKQALAHGLKCKSQFTITPGSEQIRATIERDGYAQILRDVGGIVLANACGPCIGQWDRKDIKKGEKNTIVTSYNRNFTGRNDANPETHAFVTSPEIVTALAIAGTLKFNPETDFLTGKDGKKFKLEAPDADELPRSDFDPGQDTYQHPPKDSSGQRVDVSPTSQRLQLLEPFDKWDGKDLEDLQILIKVKGKCTTDHISAAGPWLKFRGHLDNISNNLLIGAINIENGKANSVRNAVTQEFGPVPDTARYYKKHGIRWVVIGDENYGEGSSREHAALEPRHLGGRAIITKSFARIHETNLKKQGLLPLTFADPSDYNKIHPVDKLTIQGLKDFAPGKPLKCVIKHPNGTQETILLNHTFNETQIEWFRAGSALNRMKELQQ",binds
